Results are given in words; binding and its absence hold for the method and conditions named. Binding calls can cover weak binding; strength is not graded here.
Columns and labels:
[1] = target: human gastric inhibitory polypeptide (glucose-dependent insulinotropic polypeptide) (human (Homo sapiens)); test: direct binding ELISA, human GIP on plate, serial dilutions of CHO supernate, anti-human IgG-HRP
[2] = target: gastric inhibitory polypeptide (GIP), species not stated; test: surface plasmon resonance (values not given)
[3] = target: human gastric inhibitory polypeptide (glucose-dependent insulinotropic polypeptide) (human (Homo sapiens)); test: direct binding ELISA, human GIP on plate, anti-human IgG-HRP
[4] = target: synthetic mouse GIP(1-42) (mouse (Mus musculus)); test: hybridoma screen as described above (ELISA on mouse GIP and competition with mouse GIP in suspension)

B1: LC2/HC3 humanized monoclonal antibody (antibody, V domains shown)
VH: QVQLQESGAEVKKPGASVKVSCKASGFNIRDYYLHWVRQAPGQGLEWMGWIDPENGDTEYAPKFQGRVTTTADTSISTAYMELSRLRSDDTAVYYCNVYGIYFMDYWGQGTLVTVSS
VL: DIQLTQSPSSVSASVGDRVTITCRASSSISSNSLHWYQQKPGKAPKLLIYRTSNLQSGVPSRFSGSGSGTDYTLTISSLQPEDFATYYCQQGSSFPRMLTFGQGTKLEIKR
[1]
  binding: binds

B2: LC3/HC1 humanized monoclonal antibody (antibody, V domains shown)
VH: QVQLVQSGAEVKKPGATVKISCKVSGFNIRDYYLHWVQQAPGKGLEWMGWIDPENGDTEYAPKFQGRVTITADTSTDTAYMELSSLRSEDTAVYYCNVYGIYFMDYWGQGTMVTVSS
VL: DIQMTQSPGTLSLSPGERATLSCRASSSISSNSLHWYQQKPGQAPRLLIYRTSNRATGIPARFSGSGSGTDYTLTISSLEPEDFAVYYCQQGSSFPRMLTFGGGTKVEIKR
[1]
  binding: binds

B3: LC1/HC1 humanized monoclonal antibody (antibody, V domains shown)
VH: QVQLVQSGAEVKKPGATVKISCKVSGFNIRDYYLHWVQQAPGKGLEWMGWIDPENGDTEYAPKFQGRVTITADTSTDTAYMELSSLRSEDTAVYYCNVYGIYFMDYWGQGTMVTVSS
VL: DIQMTQSPSSVSASVGDRVTITCRASSSISSNSLHWYQQKPGKAPKLLIYRTSSLQSGVPSRFSGSGSGTDYTLTISSLQPEDFATYYCQQGSSFPRMLTFGQGTKLEIKR
[1]
  binding: binds

B4: 10g10 monoclonal antibody (original mouse mAb from hybridoma 10g10) (antibody, V domains shown)
VH: QVQLQESGAELVRSGASVKLSCTASGFNIRDYYLHWIKQRPEQGLEWIGWIDPENGDTEYAPKFQDKATVTADTSSNTAYLQLNSLTSEDTAVYYCNVYGIYFMDYWGQGTTVTVSS
VL: DIQLTQSPSTMAASPGEKITITCSASSSISSNSLHWYQQKPGFSPKLLIYRTSNLASGVPGRFSGSGSGTSYSLTIGTMETEDVATYYCQQGSSFPRMLTFGTGTKLEIKR
[2]
  binding: binds
[3]
  binding: binds
[4]
  binding: binds

B5: LC1/HC3 humanized monoclonal antibody (antibody, V domains shown)
VH: QVQLQESGAEVKKPGASVKVSCKASGFNIRDYYLHWVRQAPGQGLEWMGWIDPENGDTEYAPKFQGRVTTTADTSISTAYMELSRLRSDDTAVYYCNVYGIYFMDYWGQGTLVTVSS
VL: DIQMTQSPSSVSASVGDRVTITCRASSSISSNSLHWYQQKPGKAPKLLIYRTSSLQSGVPSRFSGSGSGTDYTLTISSLQPEDFATYYCQQGSSFPRMLTFGQGTKLEIKR
[1]
  binding: binds

B6: LC3/HC3 humanized monoclonal antibody (antibody, V domains shown)
VH: QVQLQESGAEVKKPGASVKVSCKASGFNIRDYYLHWVRQAPGQGLEWMGWIDPENGDTEYAPKFQGRVTTTADTSISTAYMELSRLRSDDTAVYYCNVYGIYFMDYWGQGTLVTVSS
VL: DIQMTQSPGTLSLSPGERATLSCRASSSISSNSLHWYQQKPGQAPRLLIYRTSNRATGIPARFSGSGSGTDYTLTISSLEPEDFAVYYCQQGSSFPRMLTFGGGTKVEIKR
[1]
  binding: binds

B7: LC2/HC2 humanized antibody (antibody, V domains shown)
VH: QVQLVQSGAEVKKPGATVKISCKASGFNIRDYYLHWVQQAPGKGLEWMGWIDPENGDTEYAPKFQGRVTITADTSTNTAYMELSSLRSEDTAVYYCNVYGIYFMDYWGQGTMVTVSS
VL: DIQLTQSPSSVSASVGDRVTITCRASSSISSNSLHWYQQKPGKAPKLLIYRTSNLQSGVPSRFSGSGSGTDYTLTISSLQPEDFATYYCQQGSSFPRMLTFGQGTKLEIKR
[2]
  binding: binds
[1]
  binding: binds

B8: LC2/HC1 humanized monoclonal antibody (antibody, V domains shown)
VH: QVQLVQSGAEVKKPGATVKISCKVSGFNIRDYYLHWVQQAPGKGLEWMGWIDPENGDTEYAPKFQGRVTITADTSTDTAYMELSSLRSEDTAVYYCNVYGIYFMDYWGQGTMVTVSS
VL: DIQLTQSPSSVSASVGDRVTITCRASSSISSNSLHWYQQKPGKAPKLLIYRTSNLQSGVPSRFSGSGSGTDYTLTISSLQPEDFATYYCQQGSSFPRMLTFGQGTKLEIKR
[1]
  binding: binds

B9: LC3/HC2 humanized monoclonal antibody (antibody, V domains shown)
VH: QVQLVQSGAEVKKPGATVKISCKASGFNIRDYYLHWVQQAPGKGLEWMGWIDPENGDTEYAPKFQGRVTITADTSTNTAYMELSSLRSEDTAVYYCNVYGIYFMDYWGQGTMVTVSS
VL: DIQMTQSPGTLSLSPGERATLSCRASSSISSNSLHWYQQKPGQAPRLLIYRTSNRATGIPARFSGSGSGTDYTLTISSLEPEDFAVYYCQQGSSFPRMLTFGGGTKVEIKR
[1]
  binding: binds

B10: LC1/HC2 humanized monoclonal antibody (antibody, V domains shown)
VH: QVQLVQSGAEVKKPGATVKISCKASGFNIRDYYLHWVQQAPGKGLEWMGWIDPENGDTEYAPKFQGRVTITADTSTNTAYMELSSLRSEDTAVYYCNVYGIYFMDYWGQGTMVTVSS
VL: DIQMTQSPSSVSASVGDRVTITCRASSSISSNSLHWYQQKPGKAPKLLIYRTSSLQSGVPSRFSGSGSGTDYTLTISSLQPEDFATYYCQQGSSFPRMLTFGQGTKLEIKR
[1]
  binding: binds
